# The other results are listed elsewhere or left out. The main result of the screen is listed elsewhere. These columns were measured beside it and carry no call. Most of these compounds were active or inconclusive in the main read-out, so they are no random draw. Words in brackets tell the shape of the fitted curve; partial curves, single points and poor fits give uncertain potencies.
# Test: qHTS Assay to Find Inhibitors of Chronic Active B-Cell Receptor Signaling
# Conditions: ABC-DLBCL IkBa-CBG/CBR reporter, luminescence ratio (green luciferase fused to IkBa over red control in TMD8 lymphoma cells), 4 h
# Summary of the method: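 TMD8 human ABC-DLBCL cells with doxycycline-inducible IκBα–green luciferase fusion and unfused red luciferase, in 0.5% FBS medium; compounds up to 46 uM, 4 h at 37C. Green/red luminescence ratio, filter-overlap corrected, fitted to concentration-response curves.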
# [1] = measured here: CBR red luminescence, cell number
# [2] = measured here: IkBa-CBG green luminescence
SMILES,AC50 [1],AC50 [2]
O=C(c1ccc(Cl)cc1)C1CCCN(Cc2cccc3ncccc23)C1 (stereo not drawn),"3.98 µM [rising, full curve, poor fit]",
Cn1c(O)c(/C=C2\N=c3ccccc3=C2CCNC(=S)NC2CC2)c(=O)n(C)c1=O,"35.5 µM [rising, single point]",
CC(C)(C)n1cc(C(=O)c2ccc3ccccc3c2O)cn1,"6.31 µM [rising, partial curve, poor fit]",
BrCC(Br)C1CCC(Br)C(Br)C1 (stereo not drawn),"14.6 µM [falling, partial curve, poor fit]",
COC(=O)[C@]12OC[C@]34C([C@@H](O)[C@@H]1O)[C@]1(C)CC(=O)C(O)=C(C)[C@@H]1C[C@H]3OC(=O)[C@H](O)[C@@H]24 (stereo partly drawn),"0.708 µM [falling, full curve]",
CC/C(=N\NC(=O)c1ccccc1O)c1c(O)n(Cc2ccccc2)c(=O)[nH]c1=O,"4.47 µM [falling, full curve]",
COc1ccc(CCN(C)Cc2ccc(F)cc2F)cc1OC,"0.651 µM [rising, full curve, poor fit]",
CC1CCN(CC(=O)c2ccccc2Cl)CC1,"0.00517 µM [falling, full curve, poor fit]",
NC(=S)N/N=C/c1coc2ccccc2c1=O,"1.3 µM [rising, full curve]",
Cc1cc(C(=O)N=Nc2c(O)n(C)c3ccccc23)c(C)o1,"29.1 µM [rising, single point]",
COc1ccc(-n2c(/C=C/c3ccc4c(c3)OCO4)nc3ccccc3c2=O)cc1,"16.4 µM [rising, single point]",
Cc1ccc(NC(=O)CSc2ncnc3ccccc23)cc1S(=O)(=O)N1CCOCC1,"15.8 µM [falling, single point]",
CN1C2CCC1C(C(=O)O)C(OC(=O)c1ccccc1)C2 (stereo not drawn),"16.4 µM [rising, partial curve, poor fit]",
Cn1c2ccccc2c2cnn(CC(=O)N3CCC4(CC3)OCCO4)c(=O)c21,"0.00517 µM [falling, full curve, poor fit]",
O=C1/C(=C/c2ccccc2)C[C@@]2(O)[C@H]3Cc4ccc(O)c5c4[C@@]2(CCN3CC2CC2)C1O5 (stereo partly drawn),"3.66 µM [falling, full curve]","14.6 µM [rising, partial curve, poor fit]"
COc1cccc(CNCCc2cccc(F)c2)c1OC,"3.55 µM [rising, full curve, poor fit]",
COc1ccc(C=C2C(=O)N(C)C(=O)N(C)C2=O)cc1COc1ccc(NC(C)=O)cc1,"28.2 µM [rising, single point]","35.5 µM [falling, partial curve, poor fit]"
COc1ccc(OC)c(NC(=O)Cn2c(=O)oc3ccccc32)c1,"5.62 µM [rising, single point]",
COC(=O)C1=C(c2ccc(F)cc2OCc2ccccc2)C[C@@H]2CC[C@H]1N2C(=O)NCCCOC(C)C,"20.6 µM [falling, single point]",

# Gathered by group: the entries above with a Cl atom
SMILES,AC50 [1],AC50 [2]
O=C(c1ccc(Cl)cc1)C1CCCN(Cc2cccc3ncccc23)C1 (stereo not drawn),"3.98 µM [rising, full curve, poor fit]",
CC1CCN(CC(=O)c2ccccc2Cl)CC1,"0.00517 µM [falling, full curve, poor fit]",

# (cont.)

SMILES,AC50 [1],AC50 [2]
CC1CCCCN1Cc1c[nH]c2ccccc12 (stereo not drawn),"35.5 µM [falling, single point]",
CCCn1cc(CN2CCCC(C(=O)c3cccc(OC)c3)C2)c(C)n1 (stereo not drawn),"5.62 µM [falling, single point]",
COc1cc(CNCCN2CCOCC2)ccc1OCc1ccc(Cl)cc1Cl,"22.4 µM [falling, partial curve, poor fit]",
C=CCN1C(=O)NC(=O)/C(=C/c2ccc(OCC(=O)Nc3ccc(C)cc3)cc2)C1=O,"35.5 µM [rising, single point]",
C=C1C(=O)O[C@@H]2C[C@@H](C)[C@H]3C=CC(=O)[C@]3(O)C[C@@H]12,"35.5 µM [falling, single point]",
C=CCn1c(O)c(C=Nc2ccc(N(CC)CC)cc2)c(=O)[nH]c1=O,"6.51 µM [falling, single point]",
Cc1ccc2cc3cc(C(=O)N4CCCCC4C)oc3nc2c1 (stereo not drawn),"15.8 µM [falling, single point]",
Cc1ccc(C[n+]2c(-c3ccc(C)cc3)cc(-c3ccc(C)cc3)cc2-c2ccc(C)cc2)cc1,"5.8 µM [falling, full curve]","4.11 µM [rising, partial curve, poor fit]"
O=C1NC(=O)N(c2ccc3c(c2)OCO3)C(=O)/C1=C/c1cccs1,"12.6 µM [rising, partial curve]",
c1ccc(-c2[nH]c[n+](CC3CO3)c2-c2ccccc2)cc1 (stereo not drawn),"23.1 µM [falling, partial curve, poor fit]",
O=C1NC(=O)C(CCc2ccccn2)(Cc2ccc3c(c2)OCO3)C(=O)N1CCc1ccccc1 (stereo not drawn),"23.1 µM [falling, partial curve, poor fit]",
CCN1CC2(COC(=O)c3ccccc3N)CCC(OC)C34C5CC6C(OC)CC(O)(C5C6OC)C(O)(C(OC)C23)C14 (stereo not drawn),"32.6 µM [rising, single point]",
COc1ccc(C2=NCc3nnc(C)n3-c3ccc(Cl)cc32)cc1Cl,"25.9 µM [rising, partial curve]","32.6 µM [falling, partial curve, poor fit]"
CNC(=O)O/N=C(\N)Cc1csc2ccc(Cl)cc12,"35.5 µM [rising, single point]",
CC1=CC(=C2C(=O)NC(=S)NC2=O)C=C(C(F)(F)F)N1Cc1ccccc1,"2.82 µM [rising, single point]",
Cc1cccc(NC(=O)c2cnc3sccn3c2=O)c1,"0.708 µM [rising, full curve, poor fit]",
Cn1cc(C(=O)OCC(=O)Nc2ccccc2Cl)c2ccccc21,"3.26 µM [falling, partial curve]",
Cn1c(O)c(C=NCc2ccco2)c(=O)n(C)c1=O,"4.11 µM [falling, full curve, poor fit]",
CC[C@]12CC[C@H](O)CC1=CCC1C2CC[C@]2(C)C(=O)CCC12 (stereo partly drawn),"10.3 µM [rising, partial curve]","23.1 µM [falling, partial curve, poor fit]"

# Source: PubChem BioAssay AID493014 (National Center for Advancing Translational Sciences (NCATS), 2011)
